Results are given in words; binding and its absence hold for the method and conditions named. In cells and extracts the contact can be indirect. Here binding means that the protein was enriched with, or labelled near, the bait; the list need not be complete. Sequences can lack the tags named with a protein.
B1: IFT88 protein in the testes of Ccdc189-EGFP mice (protein, UniProt Q61371 1-824)
chain: MENVHLAPETDEDDLYSGFNDYNPAYDTEELENDTGFQQAVRTSHGRRPPVTAKIPSTAVSRPIATGYGSKTSLTSSMGRPMTGTIQDGVARPMTAVRAAGFSKAALRGSAFDPLGQSRGPAPPLEAKNEDSPEEKIRQLEKKVNELVEESCIANSCGDLKLALEKAKDAGRKERVLVRQREQVTSPENINLDLTYSVLFNLASQYSANEMYAEALNTYQVIVKNKMFSNAGRLKVNMGNIYLKQRNYSKAIKFYRMALDQIPSVHKEMRIKIMQNIGITFIKTGQYSDAINSFEHIMSMAPSLKAGFNLILSCFAIGDREKMKKAFQKLIAVPLEIDEDDKYISPSDDPHTNLLIEAIKNDHLRQMERERKAMAEKYIMTAAKLIAPVIEASFAVGYNWCVEVVKASQYVELANDLEINKAITYLRQKDFNQAVDTLKMFEKKDSRVKSAAATNLSFLYYLENEFAQASSYADLAVNSDRYNPSALTNKGNTVFANGDYEKAAEFYKEALRNDSSCTEALYNIGLTYKKLNRLDEALDSFLKLHAILRNSAQVLCQIANIYELMEDPNQAIEWLMQLISVVPTDSQALSKLGELYDSEGDKSQAFQYYYESYRYFPSNIEVIEWLGAYYIDTQFCEKAIQYFERASLIQPTQVKWQLMVASCFRRSGNYQKALDTYKEIHRKFPENVECLRFLVRLCTDIGLKEVQEYATKLKRLEKMKEMREQRIKSGRDSSGGSRSKREGSAGSDSGQNNSASSKSERLSAKLRALPGTDEPYESSGNKEIDASYVDPLGPQIERPKTAAKKRIDEDDFADEELGDDLLPE
B2: CABCOCO1 protein in the testes of Ccdc189-EGFP mice (protein, UniProt Q8CDT7 1-208)
chain: MNFSIEQYSKFMTLLDMLLHNLQTLHMSLEDSIKWLGEVMAEIGPNHSQKSEDFHVFEVKEANAIIDYLKISLFQHYRLYEFLFYSTREEIVIGTEQTIEVVKPADYPFPAPLEEGISLDTYSTFIEPLPTPDMEQKVLDQEQGTQEALLESEMREEDPLGGFTIDDVKSALERVTDEVLISMQKEISEKLQVQEEAFNARIEKLKKA

By UniProt entry, the sequences of proteins in these tests, tags left out. Where a name states a change or a piece, a line headed by the entry shows the natural chain unless it says otherwise.
UniProt Q6NZQ0: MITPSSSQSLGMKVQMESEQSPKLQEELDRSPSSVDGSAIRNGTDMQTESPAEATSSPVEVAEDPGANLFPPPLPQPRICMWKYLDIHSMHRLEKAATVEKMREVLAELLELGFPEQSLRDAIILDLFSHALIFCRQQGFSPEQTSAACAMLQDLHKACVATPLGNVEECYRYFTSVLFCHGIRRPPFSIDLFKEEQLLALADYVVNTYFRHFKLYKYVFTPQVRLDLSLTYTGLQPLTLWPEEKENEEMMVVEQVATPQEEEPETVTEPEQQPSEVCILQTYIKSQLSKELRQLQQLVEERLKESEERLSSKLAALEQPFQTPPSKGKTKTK
UniProt Q61025: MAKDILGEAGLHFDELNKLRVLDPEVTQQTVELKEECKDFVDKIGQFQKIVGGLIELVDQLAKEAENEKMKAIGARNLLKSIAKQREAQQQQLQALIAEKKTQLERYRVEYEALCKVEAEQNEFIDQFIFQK

Target: CCDC189-EGFP (EGFP-tagged Ccdc189 knock-in allele), in mouse testes (mouse) (UniProt Q6NZQ0)
Assay: affinity purification with mass spectrometry; co-IP with an anti-GFP antibody from testes of Ccdc189-EGFP mice, compared to wild-type control mice, then mass spectrometry

binding | Molecule
binds | IFT20 in the testes of Ccdc189-EGFP mice (from UniProt Q61025 1-132)
binds | B1
binds | B2

— publication PMC10437088
